In patent US20260265525A1, “DEVELOPMENT OF HIGHLY FLUOROGENIC STYRENE PROBES FOR VISUALIZING RNA IN LIVE CELLS” (UNIVERSITY OF SOUTHERN CALIFORNIA, priority 2023, published 2026):

Test system: HeLa cells
Experiment: Fluorescence lifetime imaging microscopy (FLIM) in cells
Assay type: cell-based

## C[n+]1ccc(/C=C/c2ccc3ccccn23)cc1.[I-] [Dye 1c]
HeLa, 20 μM
  fluorescence lifetime, cytoplasm: 1.6 ns
  fluorescence lifetime, nucleolus: 3.4 ns
  fluorescence lifetime, nucleus: 2.5 ns
Surrounding media
  fluorescence lifetime, unbound dye: 0.82 ns
